Results are given in words; binding and its absence hold for the method and conditions named. Some entries that bind do so weakly or less than the wild type.
Molecular target: T1, Recombinant tissue transglutaminase (tG) (human), P21980
T1 chain: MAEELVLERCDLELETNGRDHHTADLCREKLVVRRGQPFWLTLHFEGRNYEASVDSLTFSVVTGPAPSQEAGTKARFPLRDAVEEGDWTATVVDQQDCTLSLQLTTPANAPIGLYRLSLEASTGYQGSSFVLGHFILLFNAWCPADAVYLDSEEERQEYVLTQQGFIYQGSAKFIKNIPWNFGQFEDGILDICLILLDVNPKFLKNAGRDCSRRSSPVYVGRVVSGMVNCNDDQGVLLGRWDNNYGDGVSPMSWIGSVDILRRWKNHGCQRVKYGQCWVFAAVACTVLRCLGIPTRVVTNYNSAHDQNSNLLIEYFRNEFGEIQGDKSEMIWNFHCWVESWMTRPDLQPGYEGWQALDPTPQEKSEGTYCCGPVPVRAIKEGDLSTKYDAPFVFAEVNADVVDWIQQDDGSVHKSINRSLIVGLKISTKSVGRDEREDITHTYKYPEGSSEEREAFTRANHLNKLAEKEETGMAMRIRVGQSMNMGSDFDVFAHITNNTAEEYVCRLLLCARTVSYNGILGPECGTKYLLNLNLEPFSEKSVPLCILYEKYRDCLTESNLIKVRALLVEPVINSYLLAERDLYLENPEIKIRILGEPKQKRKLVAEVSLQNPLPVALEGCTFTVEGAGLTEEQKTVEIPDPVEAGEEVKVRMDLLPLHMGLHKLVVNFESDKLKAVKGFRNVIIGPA
Test: static (equilibrium) SAXS; tG incubated with Ca2+ for 5 min (fast-load) or 30 min (slow-load); home source (BioXolver); both purified
Conditions: remark: other sources report otherwise

binding: binds
B1: Recombinant tissue transglutaminase (tG), P21980 1-687 (enzyme)
chain: T1 chain

Reference: PMC10161774
